# Measured values from US10865191B2, “Heterocyclic compounds useful as modulators of TNF alpha” (BRISTOL-MYERS SQUIBB COMPANY, priority 2015, dated 2020).
# Amino acid sequences for entries named in this document (tags omitted). Residues count along the entry.
# UniProt P01375, 77-233 limits assumed: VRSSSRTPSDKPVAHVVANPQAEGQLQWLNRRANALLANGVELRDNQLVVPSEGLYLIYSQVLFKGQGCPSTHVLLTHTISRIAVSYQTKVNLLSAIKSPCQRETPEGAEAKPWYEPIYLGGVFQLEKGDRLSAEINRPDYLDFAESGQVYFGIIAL
# Read-outs that look alike come from different tables or passages of the source. Some of these results come from one statement about several compounds together.
# Biological target: TNFα (Homo sapiens, UniProt P01375)
# Test: TNF induced HEK-Blue assay (NF-kB-driven secreted alkaline phosphatase reporter)
# Format: cell-based
# Procedure, shortened: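 HEK-Blue-CD40L cells (NF-kB-driven SEAP reporter), 20,000/well, added after 30 min pre-incubation of compound (0.004–25 μM final) with TNFα 0.5 ng/mL final at 37 °C; 18 h incubation. SEAP read with QUANTI-Blue at 620 nm; IC50 from 4-parameter logistic fit, normalized to unstimulated and stimulated DMSO controls.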
# [1] = TNFα 0.5 ng/mL, HEK-Blue-CD40L cells, 18 h; read-out: IC50 values measured in the TNF induced HEK-Blue assay
# [2] = read-out: IC50 values measured in the TNF induced HEK-Blue assay; TNFα 0.5 ng/mL, HEK-Blue-CD40L cells, 18 h
IC50 [1] [µM],IC50 [2] [µM],Compound
≤ 25,,"CC(Nc1c(Cl)cnc2ccc(-c3ccc(C(C)(C)O)cc3)cc12)c1ccnn1C (racemic) [Example 195, 2-(4-(3-chloro-4-((1-(1-methyl-1H-pyrazol-5-yl)ethyl)amino)quinolin-6-yl)phenyl)propan-2-ol]"
,≤ 25,"C[C@@H](Nc1c(Cl)cnc2ccc(-c3cnc(C(C)(C)O)nc3)cc12)c1ccccc1 [Example 154, (R)-2-(5-(3-chloro-4-((1-phenylethyl)amino)quinolin-6-yl)pyrimidin-2-yl)propan-2-ol]"
≤ 25,,"CC(Nc1c(Cl)cnc2ccc(-c3ccc(C(C)(C)O)cc3)cc12)c1nc(C(N)=O)ccc1F (racemic) [Example 27, 6-(1-((3-chloro-6-(4-(2-hydroxypropan-2-yl)phenyl)quinolin-4-yl)amino)ethyl)-5-fluoropicolinamide]"
≤ 25,,"COc1cncc(-c2ccc(F)c([C@@H](C)Nc3c(Cl)cnc4ccccc34)c2)c1 [Example 522, (R)-3-chloro-N-(1-(2-fluoro-5-(5-methoxypyridin-3-yl)phenyl)ethyl)quinolin-4-amine]"
≤ 25,,"CC(Nc1c(Cl)cnc2ccc(-c3ccc(C(C)(C)O)cc3)cc12)c1cnco1 (racemic) [Example 203, 2-(4-(3-chloro-4-((1-(oxazol-5-yl)ethyl)amino)quinolin-6-yl)phenyl)propan-2-ol]"
≤ 25,,"O=C(O)CN1CCN(c2ccc(-c3ccc4ncc(Cl)c(N[C@@H](c5ccccc5F)C(F)F)c4c3)cc2)CC1 [Example 16, (S)-2-(4-(4-(3-chloro-4-((2,2-difluoro-1-(2-fluorophenyl)ethyl)amino)quinolin-6-yl)phenyl)piperazin-1-yl)acetic acid]"
,≤ 25,"C[C@@H](Nc1c(Cl)cnc2ccc(-c3cnc(N4CCN(CC(N)=O)CC4)nc3)cc12)c1ccccc1F [Example 90, (R)-2-(4-(5-(3-chloro-4-((1-(2-fluorophenyl)ethyl)amino)quinolin-6-yl)pyrimidin-2-yl)piperazin-1-yl)acetamide]"
≤ 25,,"Cc1nc2ccc(-c3cnc(C(C)(C)O)nc3)cc2c(N[C@@H](c2cc(C(N)=O)ccc2F)C(F)F)c1Cl [Example 390, (S)-3-(1-((3-chloro-6-(2-(2-hydroxypropan-2-yl)pyrimidin-5-yl)-2-methylquinolin-4-yl)amino)-2,2-difluoroethyl)-4-fluorobenzamide]"
≤ 25,,"CC(=O)NC1(c2ccc(-c3ccc4ncc(Cl)c(N[C@H](C)c5ccccc5F)c4c3)cc2)CCC1 [Example 113, (R)—N-(1-(4-(3-chloro-4-((1-(2-fluorophenyl)ethyl)amino)quinolin-6-yl)phenyl)cyclobutyl)acetamide]"
≤ 25,,"COc1ccc(F)c([C@@H](C)Nc2c(Cl)c(C)nc3ccc(Br)cc23)c1 [Example 328, (R)-6-bromo-3-chloro-N-(1-(2-fluoro-5-methoxyphenyl)ethyl)-2-methylquinolin-4-amine]"
≤ 25,,"Cc1nc2ccc(-c3cnc(C(C)(C)O)nc3)cc2c(N[C@H](C)c2cc(-c3cc[nH]n3)ccc2F)c1Cl [Example 336, (R)-2-(5-(3-chloro-4-((1-(2-fluoro-5-(1H-pyrazol-3-yl)phenyl)ethyl)amino)-2-methylquinolin-6-yl)pyrimidin-2-yl)propan-2-ol]"
≤ 25,,"COc1ccc(F)c([C@@H](C)Nc2c(Cl)c(C)nc3ccccc23)c1 [Example 329, (R)-3-chloro-N-(1-(2-fluoro-5-methoxyphenyl)ethyl)-2-methylquinolin-4-amine]"
≤ 25,,"COC(=O)c1ccc(F)c([C@@H](C)Nc2c(Cl)cnc3ccc(-c4cnc(C(C)(C)O)nc4)cc23)c1 [Example 415, Methyl (R)-3-(1-((3-chloro-6-(2-(2-hydroxypropan-2-yl)pyrimidin-5-yl)quinolin-4-yl)amino)ethyl)-4-fluorobenzoate]"
≤ 25,,"COC(=O)N1CCC[C@H]([C@H](C)Nc2c(Cl)cnc3ccc(-c4cnc(C(C)(C)O)nc4)cc23)C1 [Example 354, (S)-methyl 3-((S)-1-((3-chloro-6-(2-(2-hydroxypropan-2-yl)pyrimidin-5-yl)quinolin-4-yl)amino)ethyl)piperidine-1-carboxylate]"
≤ 25,,"Cc1nc2ccc(-c3cnc(C(C)(C)O)nc3)cc2c(N[C@@H](c2cc(N3CCNC3=O)ccc2F)C(F)F)c1Cl [Example 372, (S)-1-(3-(1-((3-chloro-6-(2-(2-hydroxypropan-2-yl)pyrimidin-5-yl)-2-methylquinolin-4-yl)amino)-2,2-difluoroethyl)-4-fluorophenyl) imidazolidin-2-one]"
≤ 25,,"COc1ccc(F)c([C@@H](C)Nc2c(Cl)cnc3ccccc23)c1 [Example 451, (R)-3-chloro-N-(1-(2-fluoro-5-methoxyphenyl)ethyl)quinolin-4-amine]"
≤ 25,,"Cc1nc2ccccc2c(N[C@H](C)c2cc(-c3cn[nH]c3)ccc2F)c1Cl [Example 533, (R)-3-chloro-N-(1-(2-fluoro-5-(1H-pyrazol-4-yl)phenyl)ethyl)-2-methylquinolin-4-amine]"

IC50 [1] [µM],IC50 [2] [µM],Compound
≤ 25,,"Cc1nc2ccc(-c3cnc(C(C)(C)O)nc3)cc2c(N[C@H](C)c2cc(OCCO)ccc2F)c1Cl [Example 435, (R)-2-(5-(3-chloro-4-((1-(2-fluoro-5-(2-hydroxyethoxy)phenyl)ethyl)amino)-2-methylquinolin-6-yl)pyrimidin-2-yl)propan-2-ol]"
≤ 25,,"CC(Nc1c(Cl)cnc2ccc(-c3cnc(C(C)(C)O)nc3)cc12)c1ccccc1Cl (racemic) [Example 153, 2-(5-(3-chloro-4-((1-(2-chlorophenyl)ethyl)amino)quinolin-6-yl)pyrimidin-2-yl)propan-2-ol]"
≤ 25,,"Cc1nc2ccc(-c3cnc(C(C)(C)O)nc3)cc2c(N[C@H](C)c2cc(-c3ccccc3)ccc2F)c1Cl [Example 331, (R)-2-(5-(3-chloro-4-((1-(4-fluoro-[1,1′-biphenyl]—3-yl)ethyl)amino)-2-methylquinolin-6-yl)pyrimidin-2-yl)propan-2-ol]"
≤ 25,,"Cc1ccc2c(CCC(C)Nc3c(Cl)cnc4ccc(-c5cnc(C(C)(C)O)nc5)cc34)c[nH]c2c1 (racemic) [Example 141, 2-(5-(3-chloro-4-((4-(6-methyl-1H-indol-3-yl)butan-2-yl)amino)quinolin-6-yl)pyrimidin-2-yl)propan-2-ol]"
≤ 25,,"Cc1nc2ccc(-c3cnc(C(C)(C)O)nc3)cc2c(N[C@H](C)c2cc(-c3cnc(C(C)(C)O)nc3)ccc2F)c1Cl [Example 343, (R)-2-(5-(3-chloro-4-((1-(2-fluoro-5-(2-(2-hydroxypropan-2-yl)pyrimidin-5-yl)phenyl)ethyl)amino)-2-methylquinolin-6-yl)pyrimidin-2-yl)propan-2-ol]"
≤ 25,,"C[C@@H](Nc1c(Cl)cnc2ccc(-c3cnc(C(C)(C)O)nc3)cc12)c1cc(CN)ccc1F [Example 429, (R)-2-(5-(4-((1-(5-(aminomethyl)-2-fluorophenyl)ethyl)amino)-3-chloroquinolin-6-yl)pyrimidin-2-yl)propan-2-ol]"
≤ 25,,"CC(Nc1c(Cl)cnc2cc(F)c(-c3cnc(C(O)CO)nc3)cc12)c1ccccc1F (single isomer, unassigned) [Example 597, 1-(5-(3-chloro-7-fluoro-4-((1-(2-fluorophenyl)ethyl)amino)quinolin-6-yl)pyrimidin-2-yl)ethane-1,2-diol]"
≤ 25,,"COc1cc(-c2ccc(F)c([C@@H](C)Nc3c(Cl)cnc4ccccc34)c2)c(OC)nn1 [Example 513, (R)-3-chloro-N-(1-(5-(3,6-dimethoxypyridazin-4-yl)-2-fluorophenyl)ethyl)quinolin-4-amine]"
≤ 25,,"CCNC(=O)c1ccc(F)c(C(C)Nc2c(Cl)cnc3ccc(-c4cnc(N5CCNC(=O)C5)nc4)cc23)n1 (racemic) [Example 39, 6-(1-((3-chloro-6-(2-(3-oxopiperazin-1-yl)pyrimidin-5-yl)quinolin-4-yl)amino)ethyl)-N-ethyl-5-fluoropicolinamide]"
≤ 25,,"C[C@@H](Nc1c(Cl)cnc2ccccc12)c1cc(CCCO)ccc1F [Example 464, (R)-3-(3-(1-((3-chloroquinolin-4-yl)amino)ethyl)-4-fluorophenyl)propan-1-ol]"
≤ 25,,"CC(Nc1c(Cl)cnc2ccc(-c3ccc(C(C)(C)O)cc3)cc12)c1cncs1 (racemic) [Example 211, 2-(4-(3-chloro-4-((1-(thiazol-5-yl)ethyl)amino)quinolin-6-yl)phenyl)propan-2-ol]"
≤ 25,,"C[C@@H](Nc1c(Cl)cnc2ccc(-c3cnc(C(C)(C)O)nc3)cc12)c1cccc(N2CCOCC2)c1 [Example 136, (R)-2-(5-(3-chloro-4-((1-(3-morpholinophenyl)ethyl)amino)quinolin-6-yl)pyrimidin-2-yl)propan-2-ol]"
≤ 25,,"CC(C)(O)c1ncc(-c2ccc3ncc(Cl)c(NN4CCc5ccccc54)c3c2)cn1 [Example 47, 2-(5-(3-chloro-4-(indolin-1-ylamino)quinolin-6-yl)pyrimidin-2-yl)propan-2-ol]"
≤ 25,,"CC(Nc1c(Cl)cnc2ccc(-c3ccc(C(C)(C)O)cc3)cc12)c1cnn(C)c1 (racemic) [Example 197, 2-(4-(3-chloro-4-((1-(1-methyl-1H-pyrazol-4-yl)ethyl)amino)quinolin-6-yl)phenyl)propan-2-ol]"
≤ 25,,"CC(Nc1c(Cl)cnc2c(Cl)cc(-c3ccc(C(C)(C)O)cc3)cc12)c1ccccc1F (racemic) [Example 21, 2-(4-(3,8-dichloro-4-((1-(2-fluorophenyl)ethyl)amino)quinolin-6-yl)phenyl)propan-2-ol]"
≤ 25,,"C[C@@H](Nc1c(Cl)cnc2cc(F)c(-c3cnc(N4CCC(C(C)(C)O)C4)nc3)cc12)c1ccccc1F (mixture of isomers) [Example 283, 2-(1-(5-(3-chloro-7-fluoro-4-(((R)-1-(2-fluorophenyl)ethyl)amino)quinolin-6-yl)pyrimidin-2-yl)pyrrolidin-3-yl)propan-2-ol]"
